Sequences of proteins named here, by UniProt entry; tags and fusion partners are left off. A change or cut given only in a name is not applied to a line headed by its entry.
UniProt O95297: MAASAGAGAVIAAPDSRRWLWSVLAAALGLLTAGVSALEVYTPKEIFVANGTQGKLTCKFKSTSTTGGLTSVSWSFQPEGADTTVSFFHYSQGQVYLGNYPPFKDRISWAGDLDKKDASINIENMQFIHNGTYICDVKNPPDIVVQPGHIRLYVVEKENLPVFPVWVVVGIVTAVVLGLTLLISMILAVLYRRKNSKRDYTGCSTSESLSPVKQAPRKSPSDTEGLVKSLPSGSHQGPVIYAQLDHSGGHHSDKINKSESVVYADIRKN
UniProt Q5VVJ2: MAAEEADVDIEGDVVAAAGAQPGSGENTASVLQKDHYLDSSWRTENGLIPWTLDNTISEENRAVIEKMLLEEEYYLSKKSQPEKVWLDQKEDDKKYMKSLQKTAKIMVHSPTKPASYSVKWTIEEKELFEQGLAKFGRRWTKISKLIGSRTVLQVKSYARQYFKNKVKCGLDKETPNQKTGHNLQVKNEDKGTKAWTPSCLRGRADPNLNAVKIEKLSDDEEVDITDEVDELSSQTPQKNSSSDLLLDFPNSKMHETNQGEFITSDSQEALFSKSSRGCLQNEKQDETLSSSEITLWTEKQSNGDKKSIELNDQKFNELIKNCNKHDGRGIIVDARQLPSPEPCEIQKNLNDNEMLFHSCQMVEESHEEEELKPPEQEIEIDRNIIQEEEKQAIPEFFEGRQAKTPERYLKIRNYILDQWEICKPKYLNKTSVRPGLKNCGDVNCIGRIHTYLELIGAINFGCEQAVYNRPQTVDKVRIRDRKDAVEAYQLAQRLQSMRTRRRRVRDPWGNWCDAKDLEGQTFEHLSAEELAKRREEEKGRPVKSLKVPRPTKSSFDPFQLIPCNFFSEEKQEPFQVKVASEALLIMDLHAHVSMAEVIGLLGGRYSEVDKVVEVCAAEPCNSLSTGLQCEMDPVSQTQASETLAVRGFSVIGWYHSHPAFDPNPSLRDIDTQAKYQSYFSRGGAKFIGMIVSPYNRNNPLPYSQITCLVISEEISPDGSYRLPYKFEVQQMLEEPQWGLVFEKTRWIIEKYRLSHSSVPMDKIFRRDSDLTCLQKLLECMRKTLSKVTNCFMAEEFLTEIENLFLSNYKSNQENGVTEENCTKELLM
UniProt Q14728: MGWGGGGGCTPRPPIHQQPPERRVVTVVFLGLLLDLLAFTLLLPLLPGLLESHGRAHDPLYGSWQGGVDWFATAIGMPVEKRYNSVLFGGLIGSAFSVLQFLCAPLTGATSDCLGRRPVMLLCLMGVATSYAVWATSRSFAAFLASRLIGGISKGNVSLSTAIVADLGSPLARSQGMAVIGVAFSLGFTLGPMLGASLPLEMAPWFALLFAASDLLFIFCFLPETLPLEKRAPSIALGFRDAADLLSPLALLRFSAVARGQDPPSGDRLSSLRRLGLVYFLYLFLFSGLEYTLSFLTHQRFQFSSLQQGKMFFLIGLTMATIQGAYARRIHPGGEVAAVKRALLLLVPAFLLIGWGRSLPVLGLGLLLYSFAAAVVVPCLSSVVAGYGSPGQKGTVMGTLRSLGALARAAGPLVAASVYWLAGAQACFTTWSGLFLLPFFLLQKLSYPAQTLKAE
UniProt O95822: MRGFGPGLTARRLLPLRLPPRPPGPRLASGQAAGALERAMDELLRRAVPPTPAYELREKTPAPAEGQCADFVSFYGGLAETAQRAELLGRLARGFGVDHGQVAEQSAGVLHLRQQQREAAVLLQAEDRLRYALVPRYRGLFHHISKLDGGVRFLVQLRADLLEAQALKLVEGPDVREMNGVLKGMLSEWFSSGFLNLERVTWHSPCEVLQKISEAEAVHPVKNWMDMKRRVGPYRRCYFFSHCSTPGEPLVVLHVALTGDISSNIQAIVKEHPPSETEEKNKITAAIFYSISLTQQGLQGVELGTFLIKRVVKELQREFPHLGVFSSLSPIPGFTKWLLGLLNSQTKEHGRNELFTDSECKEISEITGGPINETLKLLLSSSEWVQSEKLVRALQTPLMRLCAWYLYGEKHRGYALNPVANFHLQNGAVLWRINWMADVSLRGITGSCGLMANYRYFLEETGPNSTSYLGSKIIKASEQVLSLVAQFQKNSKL
UniProt Q14680: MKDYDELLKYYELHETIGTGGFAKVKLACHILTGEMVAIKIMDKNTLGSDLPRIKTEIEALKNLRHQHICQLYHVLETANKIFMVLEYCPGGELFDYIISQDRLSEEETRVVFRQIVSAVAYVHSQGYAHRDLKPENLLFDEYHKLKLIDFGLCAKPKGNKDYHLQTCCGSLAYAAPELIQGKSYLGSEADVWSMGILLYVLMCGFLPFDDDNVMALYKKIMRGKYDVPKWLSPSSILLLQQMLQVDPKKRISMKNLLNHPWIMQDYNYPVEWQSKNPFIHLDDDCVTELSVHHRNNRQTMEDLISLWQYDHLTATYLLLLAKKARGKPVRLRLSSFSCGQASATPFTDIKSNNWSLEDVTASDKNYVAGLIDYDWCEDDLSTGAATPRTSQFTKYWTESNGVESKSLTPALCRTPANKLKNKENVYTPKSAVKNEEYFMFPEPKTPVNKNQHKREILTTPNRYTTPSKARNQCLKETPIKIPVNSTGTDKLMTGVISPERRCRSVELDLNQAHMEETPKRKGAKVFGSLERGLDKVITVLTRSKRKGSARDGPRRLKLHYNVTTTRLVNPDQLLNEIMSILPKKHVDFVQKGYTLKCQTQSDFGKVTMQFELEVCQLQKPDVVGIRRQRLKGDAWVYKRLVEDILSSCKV
UniProt Q9P2K5: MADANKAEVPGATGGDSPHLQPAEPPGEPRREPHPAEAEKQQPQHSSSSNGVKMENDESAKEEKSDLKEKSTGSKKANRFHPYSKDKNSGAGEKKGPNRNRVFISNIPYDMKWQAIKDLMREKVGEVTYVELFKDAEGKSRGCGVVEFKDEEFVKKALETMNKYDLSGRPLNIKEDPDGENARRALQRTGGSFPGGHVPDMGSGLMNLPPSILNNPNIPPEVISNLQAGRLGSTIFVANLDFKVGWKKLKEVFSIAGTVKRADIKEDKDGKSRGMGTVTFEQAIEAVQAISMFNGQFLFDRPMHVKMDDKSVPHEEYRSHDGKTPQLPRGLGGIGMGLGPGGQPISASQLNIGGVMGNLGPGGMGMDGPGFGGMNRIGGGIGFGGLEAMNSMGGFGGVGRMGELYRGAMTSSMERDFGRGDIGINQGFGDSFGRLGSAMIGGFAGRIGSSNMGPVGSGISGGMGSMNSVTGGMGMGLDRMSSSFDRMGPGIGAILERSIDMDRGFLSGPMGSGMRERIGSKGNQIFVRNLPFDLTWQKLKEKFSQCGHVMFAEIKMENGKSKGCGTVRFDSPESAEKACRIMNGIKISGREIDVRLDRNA
UniProt O43795: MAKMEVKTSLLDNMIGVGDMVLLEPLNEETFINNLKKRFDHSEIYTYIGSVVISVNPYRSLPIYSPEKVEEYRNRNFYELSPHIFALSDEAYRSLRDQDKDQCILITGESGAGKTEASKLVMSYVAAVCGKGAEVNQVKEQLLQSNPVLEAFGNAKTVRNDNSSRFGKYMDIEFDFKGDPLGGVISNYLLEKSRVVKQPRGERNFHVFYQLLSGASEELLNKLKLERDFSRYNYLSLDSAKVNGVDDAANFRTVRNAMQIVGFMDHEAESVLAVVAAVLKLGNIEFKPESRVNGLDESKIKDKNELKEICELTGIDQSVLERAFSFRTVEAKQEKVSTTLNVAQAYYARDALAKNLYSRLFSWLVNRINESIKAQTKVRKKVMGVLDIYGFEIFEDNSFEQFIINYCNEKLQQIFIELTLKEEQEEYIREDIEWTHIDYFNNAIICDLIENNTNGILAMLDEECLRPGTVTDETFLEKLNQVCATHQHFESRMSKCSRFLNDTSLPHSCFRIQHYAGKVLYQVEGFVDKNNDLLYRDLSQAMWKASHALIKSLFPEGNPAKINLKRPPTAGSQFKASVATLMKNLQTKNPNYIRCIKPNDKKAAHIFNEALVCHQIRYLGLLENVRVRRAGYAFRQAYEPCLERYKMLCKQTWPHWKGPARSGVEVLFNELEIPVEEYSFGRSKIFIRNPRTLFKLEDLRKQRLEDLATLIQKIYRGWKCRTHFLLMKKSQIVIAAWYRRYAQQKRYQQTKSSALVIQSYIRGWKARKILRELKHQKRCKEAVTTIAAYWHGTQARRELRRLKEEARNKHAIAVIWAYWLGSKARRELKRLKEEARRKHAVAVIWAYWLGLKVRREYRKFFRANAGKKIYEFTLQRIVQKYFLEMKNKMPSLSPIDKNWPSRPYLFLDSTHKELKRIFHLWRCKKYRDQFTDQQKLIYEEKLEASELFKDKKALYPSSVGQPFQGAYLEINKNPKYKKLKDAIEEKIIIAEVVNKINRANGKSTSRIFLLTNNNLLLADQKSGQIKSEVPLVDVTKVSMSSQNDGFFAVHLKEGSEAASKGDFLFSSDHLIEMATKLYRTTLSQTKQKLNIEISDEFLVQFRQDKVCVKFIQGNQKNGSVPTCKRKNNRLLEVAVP
UniProt Q9H081: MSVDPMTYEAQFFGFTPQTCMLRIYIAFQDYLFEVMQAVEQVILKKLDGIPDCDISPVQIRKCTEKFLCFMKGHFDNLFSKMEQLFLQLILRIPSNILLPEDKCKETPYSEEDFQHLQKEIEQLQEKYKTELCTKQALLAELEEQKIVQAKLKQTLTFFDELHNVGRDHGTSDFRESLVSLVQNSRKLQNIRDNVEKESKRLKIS
UniProt O95140: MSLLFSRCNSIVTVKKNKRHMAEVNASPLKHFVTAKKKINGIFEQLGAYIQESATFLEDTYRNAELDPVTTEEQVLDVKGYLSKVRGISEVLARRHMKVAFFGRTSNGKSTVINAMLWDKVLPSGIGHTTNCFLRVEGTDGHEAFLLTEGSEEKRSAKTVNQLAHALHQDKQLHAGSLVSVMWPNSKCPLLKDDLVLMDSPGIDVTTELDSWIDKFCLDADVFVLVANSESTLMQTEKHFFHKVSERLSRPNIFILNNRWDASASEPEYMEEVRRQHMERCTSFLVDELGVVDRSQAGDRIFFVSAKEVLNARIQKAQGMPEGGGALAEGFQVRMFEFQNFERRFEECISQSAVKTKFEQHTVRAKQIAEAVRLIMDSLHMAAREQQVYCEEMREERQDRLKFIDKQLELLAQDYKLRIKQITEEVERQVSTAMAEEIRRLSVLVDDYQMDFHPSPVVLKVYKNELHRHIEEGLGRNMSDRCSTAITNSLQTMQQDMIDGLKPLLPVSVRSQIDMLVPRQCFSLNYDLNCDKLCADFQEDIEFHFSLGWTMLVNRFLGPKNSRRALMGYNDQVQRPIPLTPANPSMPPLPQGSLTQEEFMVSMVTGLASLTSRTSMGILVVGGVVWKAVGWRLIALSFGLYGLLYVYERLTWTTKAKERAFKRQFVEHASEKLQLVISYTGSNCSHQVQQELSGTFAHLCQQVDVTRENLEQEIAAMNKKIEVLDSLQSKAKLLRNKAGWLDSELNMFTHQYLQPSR
UniProt O60291: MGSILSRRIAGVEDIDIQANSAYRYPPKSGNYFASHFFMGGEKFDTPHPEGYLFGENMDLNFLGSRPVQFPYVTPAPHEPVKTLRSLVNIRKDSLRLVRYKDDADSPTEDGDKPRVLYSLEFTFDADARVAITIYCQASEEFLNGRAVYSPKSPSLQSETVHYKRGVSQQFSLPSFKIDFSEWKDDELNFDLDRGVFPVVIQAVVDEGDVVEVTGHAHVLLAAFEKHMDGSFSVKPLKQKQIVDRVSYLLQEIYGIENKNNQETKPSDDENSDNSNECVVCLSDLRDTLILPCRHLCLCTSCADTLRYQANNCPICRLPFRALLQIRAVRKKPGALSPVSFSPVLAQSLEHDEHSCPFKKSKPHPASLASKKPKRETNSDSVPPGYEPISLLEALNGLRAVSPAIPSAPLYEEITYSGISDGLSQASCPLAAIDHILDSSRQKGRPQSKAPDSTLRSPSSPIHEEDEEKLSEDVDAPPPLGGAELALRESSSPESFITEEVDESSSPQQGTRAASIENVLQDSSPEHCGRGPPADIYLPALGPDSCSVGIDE
UniProt Q9NPC7: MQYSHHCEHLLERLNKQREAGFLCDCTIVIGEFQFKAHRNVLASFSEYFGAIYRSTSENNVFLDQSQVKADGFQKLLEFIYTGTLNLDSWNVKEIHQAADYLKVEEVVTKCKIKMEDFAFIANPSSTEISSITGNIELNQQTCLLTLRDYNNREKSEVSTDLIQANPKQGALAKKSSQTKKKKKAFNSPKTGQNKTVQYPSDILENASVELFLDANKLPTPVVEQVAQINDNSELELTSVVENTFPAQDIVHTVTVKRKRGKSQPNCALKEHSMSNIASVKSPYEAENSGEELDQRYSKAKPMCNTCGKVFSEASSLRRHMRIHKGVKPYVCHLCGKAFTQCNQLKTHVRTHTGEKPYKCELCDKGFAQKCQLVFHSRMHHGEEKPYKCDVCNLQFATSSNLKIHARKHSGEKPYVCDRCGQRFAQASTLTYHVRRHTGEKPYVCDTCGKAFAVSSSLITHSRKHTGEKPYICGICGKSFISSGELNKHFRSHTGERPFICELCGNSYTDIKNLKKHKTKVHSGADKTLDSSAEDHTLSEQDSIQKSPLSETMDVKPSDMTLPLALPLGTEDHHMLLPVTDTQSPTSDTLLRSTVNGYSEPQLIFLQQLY

This is one part of the list.
These targets were tested with COc1ccc(Cn2ccc3cc(C)c(C(=O)NO)cc32)cc1 (assay: dose-dependent thermal stabilisation call (2D-TPP, DLPTP, 10% FDR) (binary (1 = stabilised)); higher = stabilised by the compound). Settings: system: HL-60 intact cells; concentration range 0.04-10 µM.
Procedure: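 2D thermal proteome profiling in intact HL-60 cells treated with BRD-3811 (0, 0.04, 0.29, 2, 10 uM) for 90 min at 37 C, then heated 3 min at one of 12 temperatures (42-63.9 C). Soluble protein was quantified by TMT10 MS. The value is the DLPTP call of the paper: dose-dependent thermal stabilisation over all temperatures at 10% FDR (F-test of a dose-response against a flat model); one experiment, one call per tested protein.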
MUT (UniProt P22033) was tested, and the “dose-dependent thermal stabilisation call” value was inactive: 0.
With MMS19 (UniProt Q96T76) the “dose-dependent thermal stabilisation call” value was inactive: 0.
MICAL2 (UniProt O94851) was tested, and the “dose-dependent thermal stabilisation call” value was inactive: 0.
With MPZL1 (UniProt O95297) the “dose-dependent thermal stabilisation call” value was inactive: 0.
METTL1 (UniProt Q9UBP6) was tested, and the “dose-dependent thermal stabilisation call” value was inactive: 0.
MED1 (UniProt Q15648) was tested, and the “dose-dependent thermal stabilisation call” value was inactive: 0.
With MFSD1 (UniProt Q9H3U5) the “dose-dependent thermal stabilisation call” value was inactive: 0.
In the case of MRPL40 (UniProt Q9NQ50), the “dose-dependent thermal stabilisation call” value is reported as inactive: 0.
With MYSM1 (UniProt Q5VVJ2) the “dose-dependent thermal stabilisation call” value was inactive: 0.
In the case of MED24 (UniProt O75448), the “dose-dependent thermal stabilisation call” value is reported as inactive: 0.
In the case of MTR (UniProt Q99707), the “dose-dependent thermal stabilisation call” value is reported as inactive: 0.
With MFSD10 (UniProt Q14728) the “dose-dependent thermal stabilisation call” value was inactive: 0.
For MRPS11 (UniProt P82912), the “dose-dependent thermal stabilisation call” value was inactive: 0.
MRPS30 (UniProt Q9NP92) was tested, and the “dose-dependent thermal stabilisation call” value was inactive: 0.
With MLYCD (UniProt O95822) the “dose-dependent thermal stabilisation call” value was inactive: 0.
With MEF2D (UniProt Q14814) the “dose-dependent thermal stabilisation call” value was inactive: 0.
For MELK (UniProt Q14680), the “dose-dependent thermal stabilisation call” value was inactive: 0.
MYEF2 (UniProt Q9P2K5) was tested, and the “dose-dependent thermal stabilisation call” value was inactive: 0.
MLL4 was tested, and the “dose-dependent thermal stabilisation call” value was inactive: 0.
In the case of MOCS2, the “dose-dependent thermal stabilisation call” value is reported as inactive: 0.
In the case of MYO1B (UniProt O43795), the “dose-dependent thermal stabilisation call” value is reported as inactive: 0.
MPP1 (UniProt Q00013) was tested, and the “dose-dependent thermal stabilisation call” value was inactive: 0.
For MRPL44 (UniProt Q9H9J2), the “dose-dependent thermal stabilisation call” value was inactive: 0.
MRPL52 (UniProt Q86TS9) was tested, and the “dose-dependent thermal stabilisation call” value was inactive: 0.
For MRPL14 (UniProt Q6P1L8), the “dose-dependent thermal stabilisation call” value was inactive: 0.
MYO1G (UniProt B0I1T2) was tested, and the “dose-dependent thermal stabilisation call” value was inactive: 0.
MRPS33 (UniProt Q9Y291) was tested, and the “dose-dependent thermal stabilisation call” value was inactive: 0.
In the case of MRTO4 (UniProt Q9UKD2), the “dose-dependent thermal stabilisation call” value is reported as inactive: 0.
For MLH1 (UniProt P40692), the “dose-dependent thermal stabilisation call” value was inactive: 0.
In the case of MRPL34 (UniProt Q9BQ48), the “dose-dependent thermal stabilisation call” value is reported as inactive: 0.
With MGEA5 (UniProt O60502) the “dose-dependent thermal stabilisation call” value was inactive: 0.
With MIS12 (UniProt Q9H081) the “dose-dependent thermal stabilisation call” value was inactive: 0.
In the case of MFN2 (UniProt O95140), the “dose-dependent thermal stabilisation call” value is reported as inactive: 0.
In the case of MRPL42 (UniProt Q9Y6G3), the “dose-dependent thermal stabilisation call” value is reported as inactive: 0.
For MGRN1 (UniProt O60291), the “dose-dependent thermal stabilisation call” value was inactive: 0.
MYNN (UniProt Q9NPC7) was tested, and the “dose-dependent thermal stabilisation call” value was inactive: 0.
For MEGF9 (UniProt Q9H1U4), the “dose-dependent thermal stabilisation call” value was inactive: 0.
With MSL1 (UniProt Q68DK7) the “dose-dependent thermal stabilisation call” value was inactive: 0.
With MRCL3 the “dose-dependent thermal stabilisation call” value was inactive: 0.
NAE1 (UniProt Q13564) was tested, and the “dose-dependent thermal stabilisation call” value was inactive: 0.
